Values quoted from earlier work in patent US6045829A, “Nanocrystalline formulations of human immunodeficiency virus (HIV) protease inhibitors using cellulosic surface stabilizers” (Elan Pharma International Limited, priority 1997, dated 2000).
For at least one compound, name, drawing or mass did not settle the structure.

Test system: HIV reverse transcriptase (RT)
Details: in vivo

SMILES: Cc1cn([C@H]2C[C@H](N=[N+]=[N-])[C@@H](CO)O2)c(=O)[nH]c1=O [AZT, azidothymidine]
- effectiveness in treating HIV infection: only modestly effective
